In all, about 300,000 compounds went through this assay and about 3,700 (1.2%) were called active. Inconclusive results, whose numbers are uncertain, are shown with a selection of clear calls. The call rests on the fitted dose curve; tested in HEK293 cells. Where the call is inconclusive, the potency comes from a doubtful curve fit.
Test: qHTS for Inhibitors of binding or entry into cells for Lassa Virus; further: nearly all actives have a fitted effect of over 50% in size
Conditions: Lassa virus pseudotype entry inhibition, cell reporter; series mostly up to 37.9 µM
Potency means the concentration at half of the fitted maximal effect.

| Compound | Potency |
| --- | --- |
| CCOc1ccccc1CNC(=O)C1CCN(C(=O)N2CC(CC)Oc3ccc(C)cc32)CC1 (centres undefined) | inconclusive: 25.1 µM [inhibitor, partial curve, poor fit] |
| Cc1ccc(S(=O)(=O)NNC2=NS(=O)(=O)c3ccccc32)c(C)c1 | inconclusive: 35.5 µM [activator, partial curve, poor fit] |
| C=CCNS(=O)(=O)c1cccc(C(C)=O)c1 | inconclusive: 10.3 µM [activator, partial curve, poor fit] |
| CN(C)c1ccc(-c2n(C)c3ccccc3[n+]2C)cc1 | inconclusive: 29.1 µM [inhibitor, single point] |
| O=C(NCc1ccc2c(c1)OCO2)c1ccc(COc2cc(Cl)ccc2Cl)o1 | inactive |
| Fc1ccccc1N1CCN(C(c2cccs2)c2nnnn2CCc2ccccc2)CC1 (centres undefined) | inconclusive: 16.4 µM [inhibitor, single point] |
| CCN(C(=O)c1ccc(S(=O)(=O)N2CCCC2)cc1)C1CCS(=O)(=O)C1 (centres undefined) | inconclusive: 1.26 µM [inhibitor, partial curve] |
| CCn1c2ccccc2c2cc(NC(=O)CSc3nnc(-c4cccc(F)c4)o3)ccc21 | inconclusive: 10 µM [inhibitor, single point] |
| CCc1nnc(NS(=O)(=O)c2ccc(N/C=C\C(=O)c3cccc(OC)c3)cc2)s1 | inactive |
| COCCCN1C(=O)/C(=C/c2ccc(CNS(=O)(=O)c3ccccc3)o2)C(C(=O)OC)=C1C | inactive |
| Cc1ccc(NC(=O)CSc2nnc(CNC(=O)C34CC5CC(CC(C5)C3)C4)n2-c2ccc(F)cc2)cc1 | inconclusive: 35.5 µM [inhibitor, single point] |
| C=CCn1c(C)cc(C(=O)COc2ncnc3sccc23)c1C | inconclusive: 18.3 µM [inhibitor, single point] |
| CCOc1ccccc1N(C)C(=O)C1CCN(S(=O)(=O)c2cccc3nonc23)CC1 | inactive |
| C/C(=N\Nc1cc(-c2ccccc2)nc(-c2ccccc2)n1)c1ccc(O)c(C)c1 | inactive |
| Cc1nc2c(-c3ccccc3)c(C)nn2c(C)c1CCC(=O)N1CCN(c2ccc(F)cc2)CC1 | inactive |
| O=C(Nc1ccc(S(=O)(=O)N2CCN(Cc3ccccc3)CC2)cc1)c1cnccn1 | inconclusive: 1.16 µM [inhibitor, full curve, poor fit] |
| Cc1c(Cl)cccc1NC(=O)COCc1cc(-c2ccc3c(c2)OCO3)on1 | inactive |
| CCn1c(=O)c(C(=O)NNC(=O)c2ccccc2F)c(O)c2ccccc21 | inconclusive: 10 µM [inhibitor, partial curve, poor fit] |
| COc1ccc(Cl)cc1N(C)C(=O)c1ccc2c(=O)n3c(nc2c1)CCCCC3 | inactive |
| O=C(Nc1ccc(OCc2ccccc2)cc1)c1ccccc1 | inactive |
| COc1ccc(NC(=O)Cn2c(=O)n(CCC(=O)NCc3ccccc3OC)c(=O)c3ccccc32)cc1Cl | inactive |
| CC1(C)C2CC=C(/C=N/n3cnnc3)C1C2 (centres undefined) | inactive |
| CCCc1[nH]nc2c1C(c1c(C)nn(-c3ccccc3)c1Cl)C(C#N)=C(N)O2 (centres undefined) | inconclusive: 14.1 µM [inhibitor, partial curve, poor fit] |

Entries from the list above with an aryl methoxy group (three):

| Compound | Potency |
| --- | --- |
| CCc1nnc(NS(=O)(=O)c2ccc(N/C=C\C(=O)c3cccc(OC)c3)cc2)s1 | inactive |
| COc1ccc(Cl)cc1N(C)C(=O)c1ccc2c(=O)n3c(nc2c1)CCCCC3 | inactive |
| COc1ccc(NC(=O)Cn2c(=O)n(CCC(=O)NCc3ccccc3OC)c(=O)c3ccccc32)cc1Cl | inactive |

Three entries out of the list, sorted by heavy-atom count, low to high.

| Compound | Potency |
| --- | --- |
| O=C(Nc1ccc(OCc2ccccc2)cc1)c1ccccc1 | inactive |
| CCc1nnc(NS(=O)(=O)c2ccc(N/C=C\C(=O)c3cccc(OC)c3)cc2)s1 | inactive |
| COc1ccc(NC(=O)Cn2c(=O)n(CCC(=O)NCc3ccccc3OC)c(=O)c3ccccc32)cc1Cl | inactive |

Later entries

| Compound | Potency |
| --- | --- |
| O=C(Cn1cc(COc2ccccc2[N+](=O)[O-])nn1)c1ccc(O)cc1 | inconclusive: 11.2 µM [activator, partial curve, poor fit] |
| CCN(CC(=O)Nc1ccc(OC)cc1)C(=O)c1ccc2c(c1)NC(=O)C(C)S2 (centres undefined) | inactive |
| CNC(=O)CN(c1cc(OCCOC)c(Cl)cc1Cl)S(=O)(=O)c1ccc(OC)cc1 | inactive |
| COc1ccc(OC)c(C2Nc3nc4ccccc4n3C(C)=C2C(=O)Nc2ccc(C)cc2C)c1 (centres undefined) | inconclusive: 29.1 µM [inhibitor, single point] |
| COC(=O)c1c(NC(NC(C)=O)C(Cl)(Cl)Cl)sc2c1CCCC2 (centres undefined) | inactive |
| O=C(CSc1nc2ccccc2o1)Nc1cc(C(F)(F)F)ccc1N1CCOCC1 | inconclusive: 29.1 µM [inhibitor, single point] |
| CN(CC(=O)Nc1cccc(S(=O)(=O)N2CCOCC2)c1)CC(=O)Nc1ccc(Cl)c(C(F)(F)F)c1 | inconclusive: 35.5 µM [inhibitor, single point] |
| O=C(N/N=C/c1cccc2ccccc12)c1ccccc1Cl | inconclusive: 2.24 µM [inhibitor, full curve] |
| CCSc1nc2ccccc2n1C(=O)/C=C/c1ccc(OC)c(OC)c1 | active: 6.31 µM |
| COc1ccc(C(=O)/C(=C\N(C)C)n2nc(C)cc2C)cc1 | inconclusive: 2 µM [activator, partial curve, poor fit] |
| Cc1cc(NC(=O)CCC(=O)N(CCC(C)C)C(C(=O)NCC2CCCO2)c2ccccc2C)no1 (centres undefined) | inactive |
| Cc1cccc(-c2nc3cc(NC(=O)C4CCCO4)ccc3o2)c1 (centres undefined) | active: 7.94 µM |
| C=CCn1c(SCC(=O)N2CC(=O)Nc3ccccc32)nc2scc(-c3ccccc3)c2c1=O | inconclusive: 14.1 µM [inhibitor, single point] |
| O=C(OCc1nc2ccccc2s1)c1cccc(S(=O)(=O)N2CCOCC2)c1 | inconclusive: 15.8 µM [activator, partial curve, poor fit] |
| O=C(CCCCn1c(=O)c2ccccc2n(Cc2ccccc2Cl)c1=O)NCCc1ccccc1 | inactive |
| Cc1csc2nc(COC(=O)c3cccc(NC(=O)COc4ccc(Cl)cc4)c3)cc(=O)n12 | inconclusive: 14.1 µM [inhibitor, single point] |
| O=C(NNS(=O)(=O)c1ccc(F)cc1)C1CC(c2cccnc2)=NO1 (centres undefined) | inconclusive: 10 µM [activator, partial curve, poor fit] |
| COc1ccccc1N1CCN(C2CCCN(C(=O)COc3ccccc3Cl)C2)CC1 (centres undefined) | inconclusive: 1.41 µM [inhibitor, partial curve, poor fit] |
| CCCC(C(=O)NCc1cccc(Cl)c1)N1Cc2ccccc2C1=O (centres undefined) | inactive |
| Cc1ccn2c(=O)cc(COc3ccc(NC(=O)COc4ccc(Cl)cc4)cc3)nc2c1 | inactive |
| CCN(CC)c1nc(-c2cccc(OC)c2O)nc2ccccc12 | inconclusive: 35.5 µM [inhibitor, single point] |
| Cc1ccc(OCC(=O)NCc2ccccn2)c(Br)c1 | inconclusive: 15.8 µM [activator, single point] |
| CCCCCCCSc1cc(OC)c(CCN(C)C)cc1OC | inconclusive: 15.8 µM [inhibitor, single point] |

| Compound | Potency |
| --- | --- |
| Cc1nc(N2CCCCC2C)c2c(C)c(C(=O)Nc3cccc(C(F)(F)F)c3)sc2n1 (centres undefined) | inactive |
| CC1=C(C)CS(=O)N(c2ccc(S(N)(=O)=O)cc2)C1 (centres undefined) | inconclusive: 35.5 µM [inhibitor, single point] |
| N#Cc1ccccc1Cn1c(=O)n(CCCC(=O)NCc2ccc3c(c2)OCO3)c(=O)c2sccc21 | inactive |
| CC1CN(c2ncc(/C=N/NC(=O)c3ccccc3O)s2)CC(C)O1 (centres undefined) | inactive |
| CN(C)C(CNC(=O)c1cc(S(=O)(=O)N(C)Cc2ccccc2)ccc1Cl)c1ccco1 (centres undefined) | inconclusive: 11.2 µM [inhibitor, single point] |
| Cc1sc2c(c1C)c(=O)n(-c1ccccc1)c1nnc(C)n21 | inconclusive: 29.1 µM [inhibitor, single point] |
| COc1ccc(C(=O)Nc2nnc(-c3ccco3)s2)cc1 | inconclusive: 1.83 µM [inhibitor, partial curve, poor fit] |
| COc1ccc(OC)c(/C=C/c2ccnc3ccccc23)c1 | inconclusive: 4.47 µM [inhibitor, single point] |
| Cc1ccc(C)c(NC(=O)CC2NCCNC2=O)c1 (centres undefined) | inconclusive: 5.62 µM [activator, single point] |
| CC(C)CC(NC(=O)CCCNC(=O)CCC(=O)OC1O[C@H]2OC3(C)CC[C@H]4[C@H](C)CCC(C1C)C24OO3)C(=O)O (some centres undefined) | inconclusive: 0.562 µM [inhibitor, full curve, poor fit] |
| Cc1ccc(NC(=O)Cn2c(O)c(N=NC(N)=S)c3ccccc32)cc1 | inconclusive: 8.91 µM [inhibitor, partial curve, poor fit] |
| COc1ccc(N(C(=O)c2ccc(OC)c(OC)c2)S(=O)(=O)c2ccc(Cl)cc2)cc1 | inconclusive: 12.6 µM [inhibitor, single point] |
| CC[N+](C)(C)c1cccc(O)c1 | inactive |
| O/N=C/c1ccc2ccccc2c1 | inactive |
| CCc1ccccc1NC(=O)CN(C)C(=O)CSc1nn(-c2ccc(F)cc2)c(=S)s1 | inconclusive: 22.4 µM [inhibitor, single point] |
| O=[N+]([O-])c1cccc(N/N=C/c2cccc3ccccc23)c1 | inactive |
| COc1ccc(CCNC(=O)c2nnn(-c3ccc4c(c3)OCCO4)c2N)cc1OC | inconclusive: 23.1 µM [inhibitor, single point] |
| COc1ccc(CN(C(=O)CNC(=O)c2ccco2)C(C(=O)NCC2CCCO2)c2ccc(OC)c(OC)c2)cc1 (centres undefined) | inconclusive: 35.5 µM [inhibitor, single point] |
| CNCCCOc1cccc(OC(C)C)c1 | inactive |
| Nc1ccc(Oc2cc(N)cc(Oc3ccccc3)c2)cc1 | inconclusive: 12.6 µM [inhibitor, single point] |
| CCN(CC)C1Oc2cc3c(cc2C(c2cc(OC)c(O)c(OC)c2)C1C)OCO3 (centres undefined) | inconclusive: 11.2 µM [inhibitor, single point] |
| O=C(CC12CC3CC(CC(C3)C1)C2)NCc1ccc(F)cc1 | inactive |
| Cc1ccc(C(=O)O)cc1S(=O)(=O)N1CCCC1 | inactive |

Source: PubChem BioAssay AID540256 (National Center for Advancing Translational Sciences (NCATS), 2011)
